This note sets out measurements from the supplement of paper PMC11732987, “Enantioselective OTUD7B fragment discovery through chemoproteomics screening and high-throughput optimisation” (Communications Chemistry, 2025).

By UniProt entry, the sequences of proteins in these tests, tags left out. Where a name states a change or a piece, a line headed by the entry shows the natural chain unless it says otherwise. Residues count along the entry.
UniProt O95453: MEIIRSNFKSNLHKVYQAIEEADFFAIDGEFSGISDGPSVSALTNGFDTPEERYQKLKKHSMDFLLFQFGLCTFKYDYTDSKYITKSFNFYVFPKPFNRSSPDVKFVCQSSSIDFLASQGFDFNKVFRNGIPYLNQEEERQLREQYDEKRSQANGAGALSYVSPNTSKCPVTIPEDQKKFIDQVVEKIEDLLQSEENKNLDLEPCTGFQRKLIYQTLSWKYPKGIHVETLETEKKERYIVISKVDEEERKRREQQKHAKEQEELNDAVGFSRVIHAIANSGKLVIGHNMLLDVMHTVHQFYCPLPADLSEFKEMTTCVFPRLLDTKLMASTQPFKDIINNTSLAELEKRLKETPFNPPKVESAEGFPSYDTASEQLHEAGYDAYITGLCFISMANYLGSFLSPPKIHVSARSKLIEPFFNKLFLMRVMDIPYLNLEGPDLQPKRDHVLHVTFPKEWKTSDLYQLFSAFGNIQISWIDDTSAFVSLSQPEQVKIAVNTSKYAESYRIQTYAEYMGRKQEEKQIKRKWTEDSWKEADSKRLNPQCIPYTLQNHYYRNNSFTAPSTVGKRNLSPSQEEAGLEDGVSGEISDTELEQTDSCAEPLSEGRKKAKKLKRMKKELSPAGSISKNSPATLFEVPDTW
UniProt P28328: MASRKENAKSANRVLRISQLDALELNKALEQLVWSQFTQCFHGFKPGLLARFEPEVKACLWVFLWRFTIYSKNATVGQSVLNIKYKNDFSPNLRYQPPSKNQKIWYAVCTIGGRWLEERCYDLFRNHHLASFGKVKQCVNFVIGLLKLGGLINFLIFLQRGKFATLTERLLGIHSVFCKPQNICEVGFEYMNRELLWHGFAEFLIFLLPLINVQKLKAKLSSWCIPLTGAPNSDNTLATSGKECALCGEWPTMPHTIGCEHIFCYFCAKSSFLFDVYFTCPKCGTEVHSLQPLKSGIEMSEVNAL
UniProt O15460: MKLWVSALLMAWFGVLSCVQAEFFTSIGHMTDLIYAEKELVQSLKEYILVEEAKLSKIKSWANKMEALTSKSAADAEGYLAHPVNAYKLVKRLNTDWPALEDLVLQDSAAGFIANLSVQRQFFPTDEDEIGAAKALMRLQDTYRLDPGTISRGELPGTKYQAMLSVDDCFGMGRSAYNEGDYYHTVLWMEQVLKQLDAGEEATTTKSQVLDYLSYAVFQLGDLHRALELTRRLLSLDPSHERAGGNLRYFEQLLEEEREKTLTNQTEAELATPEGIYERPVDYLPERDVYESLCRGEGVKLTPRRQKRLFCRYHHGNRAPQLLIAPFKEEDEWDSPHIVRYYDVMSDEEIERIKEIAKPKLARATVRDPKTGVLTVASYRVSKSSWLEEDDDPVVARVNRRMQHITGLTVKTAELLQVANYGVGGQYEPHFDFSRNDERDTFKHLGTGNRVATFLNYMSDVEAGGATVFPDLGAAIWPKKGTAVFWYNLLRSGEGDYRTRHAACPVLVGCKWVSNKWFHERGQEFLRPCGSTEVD
UniProt A6NDG6: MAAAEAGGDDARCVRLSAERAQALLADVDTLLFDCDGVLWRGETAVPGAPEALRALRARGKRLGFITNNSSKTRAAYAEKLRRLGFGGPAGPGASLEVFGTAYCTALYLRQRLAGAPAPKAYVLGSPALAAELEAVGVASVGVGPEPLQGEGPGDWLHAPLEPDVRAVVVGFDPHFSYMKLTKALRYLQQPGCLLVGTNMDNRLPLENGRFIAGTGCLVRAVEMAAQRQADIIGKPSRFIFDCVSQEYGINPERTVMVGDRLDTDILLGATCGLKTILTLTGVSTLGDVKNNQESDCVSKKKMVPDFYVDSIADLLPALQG
UniProt Q15121, whole entry, looked up: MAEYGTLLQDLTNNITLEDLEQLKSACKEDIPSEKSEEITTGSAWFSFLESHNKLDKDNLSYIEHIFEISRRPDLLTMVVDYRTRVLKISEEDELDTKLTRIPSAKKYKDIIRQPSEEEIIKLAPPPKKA
UniProt P12004, whole entry, looked up: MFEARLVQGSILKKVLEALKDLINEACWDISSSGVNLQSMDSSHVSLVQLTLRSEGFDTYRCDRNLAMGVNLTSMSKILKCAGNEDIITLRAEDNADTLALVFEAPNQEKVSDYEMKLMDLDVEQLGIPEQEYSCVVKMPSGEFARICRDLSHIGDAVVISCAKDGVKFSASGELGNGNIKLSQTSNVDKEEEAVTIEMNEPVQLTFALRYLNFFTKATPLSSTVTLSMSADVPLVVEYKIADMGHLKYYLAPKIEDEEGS
UniProt O96013, 255-290: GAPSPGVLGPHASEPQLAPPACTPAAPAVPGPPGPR
UniProt Q96RG2: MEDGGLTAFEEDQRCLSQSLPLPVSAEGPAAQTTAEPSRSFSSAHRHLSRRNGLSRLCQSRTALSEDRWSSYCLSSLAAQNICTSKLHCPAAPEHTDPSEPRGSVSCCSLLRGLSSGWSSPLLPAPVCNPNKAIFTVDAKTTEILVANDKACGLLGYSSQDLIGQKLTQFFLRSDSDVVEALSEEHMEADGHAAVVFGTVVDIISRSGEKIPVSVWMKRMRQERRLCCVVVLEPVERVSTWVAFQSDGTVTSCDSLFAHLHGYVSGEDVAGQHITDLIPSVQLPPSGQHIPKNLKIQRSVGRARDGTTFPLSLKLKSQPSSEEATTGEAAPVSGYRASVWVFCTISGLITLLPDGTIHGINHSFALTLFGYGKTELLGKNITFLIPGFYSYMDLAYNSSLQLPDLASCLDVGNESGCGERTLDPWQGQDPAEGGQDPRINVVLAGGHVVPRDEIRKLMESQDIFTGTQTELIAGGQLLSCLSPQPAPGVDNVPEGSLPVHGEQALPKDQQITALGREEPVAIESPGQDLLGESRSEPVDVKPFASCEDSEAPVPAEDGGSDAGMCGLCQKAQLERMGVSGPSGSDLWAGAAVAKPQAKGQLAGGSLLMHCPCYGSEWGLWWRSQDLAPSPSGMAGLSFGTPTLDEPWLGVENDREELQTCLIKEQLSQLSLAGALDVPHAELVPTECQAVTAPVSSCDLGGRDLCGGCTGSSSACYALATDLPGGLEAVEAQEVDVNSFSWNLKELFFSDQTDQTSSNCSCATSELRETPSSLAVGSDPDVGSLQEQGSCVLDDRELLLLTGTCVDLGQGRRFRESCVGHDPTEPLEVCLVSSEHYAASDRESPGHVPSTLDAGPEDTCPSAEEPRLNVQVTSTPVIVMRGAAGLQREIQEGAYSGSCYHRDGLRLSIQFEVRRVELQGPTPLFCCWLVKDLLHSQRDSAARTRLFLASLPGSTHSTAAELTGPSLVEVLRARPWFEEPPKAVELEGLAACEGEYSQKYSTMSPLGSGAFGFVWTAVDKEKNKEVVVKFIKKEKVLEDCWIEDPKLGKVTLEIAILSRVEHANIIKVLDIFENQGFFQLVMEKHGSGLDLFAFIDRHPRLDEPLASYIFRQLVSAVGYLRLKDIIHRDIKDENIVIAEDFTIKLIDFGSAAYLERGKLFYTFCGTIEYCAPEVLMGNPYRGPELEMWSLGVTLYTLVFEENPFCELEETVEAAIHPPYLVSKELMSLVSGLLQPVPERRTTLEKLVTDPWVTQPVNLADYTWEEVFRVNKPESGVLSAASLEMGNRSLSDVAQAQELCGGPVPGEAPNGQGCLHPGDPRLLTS
UniProt P29122: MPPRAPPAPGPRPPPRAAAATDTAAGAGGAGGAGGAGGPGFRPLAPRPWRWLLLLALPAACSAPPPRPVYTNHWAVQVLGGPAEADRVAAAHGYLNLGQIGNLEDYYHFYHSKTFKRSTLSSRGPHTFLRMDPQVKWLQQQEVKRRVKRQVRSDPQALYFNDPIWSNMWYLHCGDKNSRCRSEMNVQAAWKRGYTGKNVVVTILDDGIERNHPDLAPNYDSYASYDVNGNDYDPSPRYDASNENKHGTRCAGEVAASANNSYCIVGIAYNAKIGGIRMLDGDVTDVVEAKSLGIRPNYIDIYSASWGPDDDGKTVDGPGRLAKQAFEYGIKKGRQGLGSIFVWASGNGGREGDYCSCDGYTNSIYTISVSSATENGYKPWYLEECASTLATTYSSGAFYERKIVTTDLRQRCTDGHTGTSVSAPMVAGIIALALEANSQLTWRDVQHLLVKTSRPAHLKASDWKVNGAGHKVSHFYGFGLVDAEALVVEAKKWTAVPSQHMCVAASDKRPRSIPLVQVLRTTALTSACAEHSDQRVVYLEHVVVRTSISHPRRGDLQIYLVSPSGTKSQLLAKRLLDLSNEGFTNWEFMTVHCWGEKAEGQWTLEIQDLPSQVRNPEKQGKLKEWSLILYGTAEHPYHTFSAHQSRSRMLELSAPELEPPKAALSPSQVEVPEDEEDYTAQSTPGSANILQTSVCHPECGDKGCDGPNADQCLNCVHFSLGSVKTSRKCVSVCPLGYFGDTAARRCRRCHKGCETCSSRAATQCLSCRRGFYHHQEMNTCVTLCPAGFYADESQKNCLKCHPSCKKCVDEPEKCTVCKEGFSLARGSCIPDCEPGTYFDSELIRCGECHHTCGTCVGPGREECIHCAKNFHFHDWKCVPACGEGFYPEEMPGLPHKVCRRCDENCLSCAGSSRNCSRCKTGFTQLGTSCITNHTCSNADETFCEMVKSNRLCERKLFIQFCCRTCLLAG
UniProt P55809: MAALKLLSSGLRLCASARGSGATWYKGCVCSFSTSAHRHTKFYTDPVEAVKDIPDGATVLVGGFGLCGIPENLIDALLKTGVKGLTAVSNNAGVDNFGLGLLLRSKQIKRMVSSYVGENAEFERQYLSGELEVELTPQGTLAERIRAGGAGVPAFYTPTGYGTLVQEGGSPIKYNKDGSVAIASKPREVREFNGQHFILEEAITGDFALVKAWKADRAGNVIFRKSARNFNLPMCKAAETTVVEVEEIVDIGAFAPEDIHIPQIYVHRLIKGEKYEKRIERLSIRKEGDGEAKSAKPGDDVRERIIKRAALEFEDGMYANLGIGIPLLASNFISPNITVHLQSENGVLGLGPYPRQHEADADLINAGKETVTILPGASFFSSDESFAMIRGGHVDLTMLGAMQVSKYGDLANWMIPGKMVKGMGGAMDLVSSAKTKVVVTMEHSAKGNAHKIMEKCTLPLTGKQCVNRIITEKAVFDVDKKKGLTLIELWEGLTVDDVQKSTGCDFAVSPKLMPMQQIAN
UniProt Q32P28: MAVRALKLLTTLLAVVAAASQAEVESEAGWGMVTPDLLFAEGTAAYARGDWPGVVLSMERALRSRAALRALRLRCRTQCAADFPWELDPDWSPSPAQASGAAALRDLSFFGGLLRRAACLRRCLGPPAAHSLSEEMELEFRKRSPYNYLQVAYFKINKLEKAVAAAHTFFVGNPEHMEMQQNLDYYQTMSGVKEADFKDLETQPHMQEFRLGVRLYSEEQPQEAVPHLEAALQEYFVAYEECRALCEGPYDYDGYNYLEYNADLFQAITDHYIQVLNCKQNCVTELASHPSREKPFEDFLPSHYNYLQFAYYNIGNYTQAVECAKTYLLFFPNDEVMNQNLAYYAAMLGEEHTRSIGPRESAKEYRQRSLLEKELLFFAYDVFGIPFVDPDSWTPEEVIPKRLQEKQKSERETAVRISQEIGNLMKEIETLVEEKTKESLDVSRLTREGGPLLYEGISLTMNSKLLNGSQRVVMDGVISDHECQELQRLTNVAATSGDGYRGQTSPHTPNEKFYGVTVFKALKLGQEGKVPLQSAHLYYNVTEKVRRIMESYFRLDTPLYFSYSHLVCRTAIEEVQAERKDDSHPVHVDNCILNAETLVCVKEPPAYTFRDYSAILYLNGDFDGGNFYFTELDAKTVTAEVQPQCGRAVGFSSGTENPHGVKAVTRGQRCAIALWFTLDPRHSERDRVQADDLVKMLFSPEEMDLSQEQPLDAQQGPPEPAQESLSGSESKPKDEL
UniProt Q96BN8, 212-233: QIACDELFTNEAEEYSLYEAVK
UniProt A6NDB9: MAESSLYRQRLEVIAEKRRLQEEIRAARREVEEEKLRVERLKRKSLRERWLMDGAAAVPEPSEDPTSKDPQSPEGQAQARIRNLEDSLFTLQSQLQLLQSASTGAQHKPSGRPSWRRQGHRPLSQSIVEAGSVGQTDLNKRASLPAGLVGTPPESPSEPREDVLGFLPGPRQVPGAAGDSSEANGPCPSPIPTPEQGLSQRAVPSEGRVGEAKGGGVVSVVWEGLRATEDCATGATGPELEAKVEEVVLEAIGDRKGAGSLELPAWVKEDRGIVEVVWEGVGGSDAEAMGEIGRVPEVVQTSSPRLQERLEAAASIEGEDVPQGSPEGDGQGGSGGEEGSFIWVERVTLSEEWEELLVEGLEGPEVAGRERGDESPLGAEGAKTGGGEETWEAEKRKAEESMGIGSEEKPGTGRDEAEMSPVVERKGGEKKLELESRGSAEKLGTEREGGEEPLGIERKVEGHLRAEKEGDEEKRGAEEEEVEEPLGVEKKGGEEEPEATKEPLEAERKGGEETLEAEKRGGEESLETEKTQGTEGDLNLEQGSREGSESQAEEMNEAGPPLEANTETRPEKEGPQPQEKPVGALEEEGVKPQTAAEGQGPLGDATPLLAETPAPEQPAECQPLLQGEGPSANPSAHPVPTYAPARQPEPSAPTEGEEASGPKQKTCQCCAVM

The list shows a part of the results. The data scatter; read single values as rough.

Compound in the assay: ClCC(=O)N[C@H]1CCCc2ccccc12
Kind of assay: log2 mean competition ratio of IA-DTB cysteine labelling (DMSO/compound) (log2 ratio); higher = stronger cysteine engagement by compound. As to conditions: 200 µM; treatment time: 4 h; cell line lysate: HEK293T. The procedure:
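IA-DTB competitive cysteine chemoproteomics in HEK293T RIPA lysate. Lysates were treated with compound 29 or 30 at 50 or 200 µM for 4 h, then IA-DTB (500 µM, 1 h), trypsin-digested, NeutrAvidin-enriched and analysed by diaPASEF. Competition ratio = intensity DMSO / intensity compound (n=4 treated, n=64 DMSO); binding: mean log2 CR ≥ 1 and p ≤ 0.05 plus QC filters. Target is the cysteine site.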
Regarding PARP1 C311 (UniProt P09874), the “log2 mean competition ratio” value is -0.102.
As to PARN C317 (UniProt O95453), the “log2 mean competition ratio” value was found to be 0.0559.
For PEX2 C283 (UniProt P28328), the “log2 mean competition ratio” value is -0.0328.
In the case of P4HA2 C529 (UniProt O15460), the “log2 mean competition ratio” value was -0.141.
As to PGP C243 (UniProt A6NDG6), the “log2 mean competition ratio” value was determined as 0.0686.
The result for PARD6G C16 reads -0.072; that for PARP2 C474 (UniProt Q9UGN5), 0.0697.
Take PA2G4 C296 (UniProt Q9UQ80): the “log2 mean competition ratio” value was -0.089.
The result for PARD6B C13 (UniProt Q9BYG5) reads -0.121; that for PALS1 C39, 0.0272; that for PCNT C2628 (UniProt O95613), -0.0245.
The result for PHC2 C673 (UniProt Q8IXK0) reads 0.0118; that for PDK1 C71, 0.321.
Regarding PEA15 C27 (UniProt Q15121), the “log2 mean competition ratio” value is -0.23.
The result for PCNA C81 (UniProt P12004) reads -0.201; that for PALS1 C366, 0.596; that for PAK4 C276 (UniProt O96013), -0.159.
For PARG C943 (UniProt Q86W56), the “log2 mean competition ratio” value is -0.0515.
As to PASK C89 (UniProt Q96RG2), the “log2 mean competition ratio” value was -0.259.
As for PDE4DIP C617, the “log2 mean competition ratio” value came out at 0.227.
The result for PCSK6 C528 (UniProt P29122) reads 0.0442.
The same measure for OXCT1 C235 (UniProt P55809): -0.0485; for PARP2 C288 (UniProt Q9UGN5): -0.0714; for P3H1 C483 (UniProt Q32P28): 0.275.
For OTULIN C215 (UniProt Q96BN8), the “log2 mean competition ratio” value worked out at 0.3.
The result for PEPD C158 (UniProt P12955) reads 0.455; that for PGM3 C348, -0.137; that for PDE4D C258 (UniProt Q08499), 0.0597.
The same measure for PALM3 C231 (UniProt A6NDB9): -0.414; for PCIF1 C404 (UniProt Q9H4Z3): 0.0233.
